Assay results: patent US20200325187A1 (Genentech, published 2020)
Results are given in words; binding and its absence hold for the method and conditions named. Some binding calls cover weakened binding; strength is not graded here.

Protein sequences, listed by entry. Tags and fused reporters are not part of them. Residues count along the entry.
UniProt P17948, residues 27-756: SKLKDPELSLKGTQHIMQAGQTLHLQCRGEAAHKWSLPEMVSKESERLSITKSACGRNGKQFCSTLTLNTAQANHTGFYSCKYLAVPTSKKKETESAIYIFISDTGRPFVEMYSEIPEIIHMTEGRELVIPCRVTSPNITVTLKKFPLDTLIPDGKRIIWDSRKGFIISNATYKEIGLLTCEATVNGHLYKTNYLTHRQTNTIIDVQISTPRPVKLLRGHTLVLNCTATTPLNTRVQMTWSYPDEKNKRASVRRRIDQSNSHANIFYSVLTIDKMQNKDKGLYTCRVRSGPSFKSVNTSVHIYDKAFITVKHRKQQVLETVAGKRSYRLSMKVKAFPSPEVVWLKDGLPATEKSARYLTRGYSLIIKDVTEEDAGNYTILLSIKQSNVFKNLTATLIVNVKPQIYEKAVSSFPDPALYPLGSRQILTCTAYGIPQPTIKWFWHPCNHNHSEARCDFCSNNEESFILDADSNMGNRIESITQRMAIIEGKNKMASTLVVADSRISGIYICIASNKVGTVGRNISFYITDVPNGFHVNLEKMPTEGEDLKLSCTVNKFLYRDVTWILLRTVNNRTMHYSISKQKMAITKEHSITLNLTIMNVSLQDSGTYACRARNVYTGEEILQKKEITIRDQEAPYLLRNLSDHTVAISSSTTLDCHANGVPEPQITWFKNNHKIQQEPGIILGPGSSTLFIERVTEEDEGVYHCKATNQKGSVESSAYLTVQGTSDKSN

Target: T1, VEGF-B (human, UniProt P49765-2 22-188, limits assumed)
T1 sequence (looked up): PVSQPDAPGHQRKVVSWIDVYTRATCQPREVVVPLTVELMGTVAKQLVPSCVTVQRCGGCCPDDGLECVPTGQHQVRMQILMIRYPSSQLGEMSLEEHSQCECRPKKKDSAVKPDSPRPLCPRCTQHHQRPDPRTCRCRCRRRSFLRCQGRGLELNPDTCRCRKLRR
Assay: plate ELISA, growth factor coated

Substance: Flt-1 (from UniProt P17948 27-756) (receptor)
- binding: binds
